{"sequences": {"note": "Protein sequences, listed by entry. Tags and fused reporters are not part of them. Lines headed by an entry give the natural chain unless they say otherwise; changes in a name come on top.", "UniProt Q9BW85": "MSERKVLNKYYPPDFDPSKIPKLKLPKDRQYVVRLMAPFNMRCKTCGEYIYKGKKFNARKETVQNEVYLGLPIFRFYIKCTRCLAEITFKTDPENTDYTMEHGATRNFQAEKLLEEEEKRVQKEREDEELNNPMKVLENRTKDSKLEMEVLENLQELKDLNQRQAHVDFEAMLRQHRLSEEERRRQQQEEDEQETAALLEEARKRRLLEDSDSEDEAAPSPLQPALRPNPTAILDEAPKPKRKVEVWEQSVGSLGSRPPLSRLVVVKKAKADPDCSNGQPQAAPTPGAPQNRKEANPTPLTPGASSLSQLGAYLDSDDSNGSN", "UniProt P17028": "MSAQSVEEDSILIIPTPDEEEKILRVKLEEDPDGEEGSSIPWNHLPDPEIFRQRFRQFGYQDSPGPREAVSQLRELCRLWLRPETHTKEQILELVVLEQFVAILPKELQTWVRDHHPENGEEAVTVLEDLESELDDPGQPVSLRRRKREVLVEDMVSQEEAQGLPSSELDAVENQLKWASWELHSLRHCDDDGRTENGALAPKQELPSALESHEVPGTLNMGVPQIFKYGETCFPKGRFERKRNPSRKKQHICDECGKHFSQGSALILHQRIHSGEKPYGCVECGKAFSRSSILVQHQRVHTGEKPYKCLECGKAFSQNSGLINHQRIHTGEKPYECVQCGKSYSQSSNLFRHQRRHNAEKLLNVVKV", "UniProt O95159": "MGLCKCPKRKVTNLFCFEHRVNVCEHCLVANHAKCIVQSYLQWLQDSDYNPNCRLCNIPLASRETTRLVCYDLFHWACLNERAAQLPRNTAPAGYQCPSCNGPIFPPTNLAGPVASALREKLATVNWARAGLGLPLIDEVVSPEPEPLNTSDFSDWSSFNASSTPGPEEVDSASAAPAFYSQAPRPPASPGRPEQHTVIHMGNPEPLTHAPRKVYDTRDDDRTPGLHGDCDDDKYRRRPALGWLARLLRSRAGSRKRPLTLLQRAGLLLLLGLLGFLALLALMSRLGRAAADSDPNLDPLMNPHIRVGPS", "UniProt P13010": "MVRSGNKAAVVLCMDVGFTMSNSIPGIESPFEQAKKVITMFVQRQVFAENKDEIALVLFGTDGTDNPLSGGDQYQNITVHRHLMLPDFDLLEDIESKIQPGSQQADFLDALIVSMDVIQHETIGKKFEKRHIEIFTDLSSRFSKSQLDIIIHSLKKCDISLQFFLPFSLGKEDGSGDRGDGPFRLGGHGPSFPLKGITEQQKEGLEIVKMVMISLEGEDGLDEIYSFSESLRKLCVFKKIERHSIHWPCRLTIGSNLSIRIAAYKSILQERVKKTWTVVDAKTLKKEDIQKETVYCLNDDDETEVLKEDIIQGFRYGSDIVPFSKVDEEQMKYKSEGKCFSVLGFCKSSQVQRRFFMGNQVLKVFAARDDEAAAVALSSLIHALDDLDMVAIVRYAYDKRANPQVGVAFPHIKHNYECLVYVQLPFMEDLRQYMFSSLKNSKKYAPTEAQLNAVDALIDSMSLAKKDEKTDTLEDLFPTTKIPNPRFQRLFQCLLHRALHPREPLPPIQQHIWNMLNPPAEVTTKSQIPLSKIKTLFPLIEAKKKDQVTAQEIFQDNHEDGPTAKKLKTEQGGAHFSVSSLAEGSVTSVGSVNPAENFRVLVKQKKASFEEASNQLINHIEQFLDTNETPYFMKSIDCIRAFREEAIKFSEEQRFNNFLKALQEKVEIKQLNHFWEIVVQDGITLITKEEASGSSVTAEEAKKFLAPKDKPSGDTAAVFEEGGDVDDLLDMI", "UniProt Q9BSR8": "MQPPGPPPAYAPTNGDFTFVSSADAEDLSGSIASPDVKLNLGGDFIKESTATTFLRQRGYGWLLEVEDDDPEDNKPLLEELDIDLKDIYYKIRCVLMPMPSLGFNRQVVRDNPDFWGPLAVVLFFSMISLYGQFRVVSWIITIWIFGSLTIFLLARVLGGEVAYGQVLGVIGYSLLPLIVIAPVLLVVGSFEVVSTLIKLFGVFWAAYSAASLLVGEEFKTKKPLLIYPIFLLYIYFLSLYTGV", "UniProt Q96JP5": "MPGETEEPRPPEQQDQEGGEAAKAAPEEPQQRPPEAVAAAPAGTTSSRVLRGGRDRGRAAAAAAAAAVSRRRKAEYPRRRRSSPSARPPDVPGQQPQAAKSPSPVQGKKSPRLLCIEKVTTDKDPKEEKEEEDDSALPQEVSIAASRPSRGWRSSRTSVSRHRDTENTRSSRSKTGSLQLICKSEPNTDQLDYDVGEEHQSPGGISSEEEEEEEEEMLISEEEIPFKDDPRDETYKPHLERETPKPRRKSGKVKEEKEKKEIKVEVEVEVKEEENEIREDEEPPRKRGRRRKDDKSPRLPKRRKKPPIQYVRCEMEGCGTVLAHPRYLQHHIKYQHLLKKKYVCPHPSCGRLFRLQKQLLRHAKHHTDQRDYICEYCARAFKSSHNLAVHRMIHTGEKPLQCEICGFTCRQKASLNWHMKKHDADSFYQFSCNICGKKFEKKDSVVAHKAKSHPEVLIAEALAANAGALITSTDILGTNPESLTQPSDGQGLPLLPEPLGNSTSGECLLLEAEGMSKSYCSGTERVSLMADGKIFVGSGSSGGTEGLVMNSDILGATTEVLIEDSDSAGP", "UniProt P12956": "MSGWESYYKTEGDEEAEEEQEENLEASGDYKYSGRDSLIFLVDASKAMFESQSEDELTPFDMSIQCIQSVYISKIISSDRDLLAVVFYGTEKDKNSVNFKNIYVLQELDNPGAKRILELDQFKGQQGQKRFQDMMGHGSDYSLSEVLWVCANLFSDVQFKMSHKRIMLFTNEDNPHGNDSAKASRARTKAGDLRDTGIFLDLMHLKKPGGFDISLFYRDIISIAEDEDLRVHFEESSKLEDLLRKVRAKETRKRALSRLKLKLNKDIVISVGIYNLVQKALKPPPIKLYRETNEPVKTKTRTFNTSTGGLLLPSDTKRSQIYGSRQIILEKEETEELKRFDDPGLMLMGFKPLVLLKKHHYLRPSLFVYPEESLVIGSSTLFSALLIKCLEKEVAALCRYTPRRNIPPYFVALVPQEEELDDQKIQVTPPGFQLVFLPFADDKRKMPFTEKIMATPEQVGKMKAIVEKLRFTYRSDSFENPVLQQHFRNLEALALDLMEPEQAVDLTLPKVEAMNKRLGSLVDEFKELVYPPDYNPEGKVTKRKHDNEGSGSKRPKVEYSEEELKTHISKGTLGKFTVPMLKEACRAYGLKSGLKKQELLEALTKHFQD", "UniProt Q9NQH7": "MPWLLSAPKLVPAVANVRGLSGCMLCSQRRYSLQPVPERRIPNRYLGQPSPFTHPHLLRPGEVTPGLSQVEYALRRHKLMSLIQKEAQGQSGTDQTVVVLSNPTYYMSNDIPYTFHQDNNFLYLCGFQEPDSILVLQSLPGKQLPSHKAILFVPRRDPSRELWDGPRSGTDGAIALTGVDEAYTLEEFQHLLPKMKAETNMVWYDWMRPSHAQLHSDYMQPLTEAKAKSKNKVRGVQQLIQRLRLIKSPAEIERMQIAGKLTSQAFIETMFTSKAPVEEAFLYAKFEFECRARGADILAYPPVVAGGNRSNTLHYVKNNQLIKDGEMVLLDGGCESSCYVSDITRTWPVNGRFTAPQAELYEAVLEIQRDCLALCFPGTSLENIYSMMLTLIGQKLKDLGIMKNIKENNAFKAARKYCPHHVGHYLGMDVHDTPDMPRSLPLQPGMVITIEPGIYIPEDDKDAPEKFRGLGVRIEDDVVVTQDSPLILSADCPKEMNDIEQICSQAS", "UniProt O14980, whole entry, looked up": "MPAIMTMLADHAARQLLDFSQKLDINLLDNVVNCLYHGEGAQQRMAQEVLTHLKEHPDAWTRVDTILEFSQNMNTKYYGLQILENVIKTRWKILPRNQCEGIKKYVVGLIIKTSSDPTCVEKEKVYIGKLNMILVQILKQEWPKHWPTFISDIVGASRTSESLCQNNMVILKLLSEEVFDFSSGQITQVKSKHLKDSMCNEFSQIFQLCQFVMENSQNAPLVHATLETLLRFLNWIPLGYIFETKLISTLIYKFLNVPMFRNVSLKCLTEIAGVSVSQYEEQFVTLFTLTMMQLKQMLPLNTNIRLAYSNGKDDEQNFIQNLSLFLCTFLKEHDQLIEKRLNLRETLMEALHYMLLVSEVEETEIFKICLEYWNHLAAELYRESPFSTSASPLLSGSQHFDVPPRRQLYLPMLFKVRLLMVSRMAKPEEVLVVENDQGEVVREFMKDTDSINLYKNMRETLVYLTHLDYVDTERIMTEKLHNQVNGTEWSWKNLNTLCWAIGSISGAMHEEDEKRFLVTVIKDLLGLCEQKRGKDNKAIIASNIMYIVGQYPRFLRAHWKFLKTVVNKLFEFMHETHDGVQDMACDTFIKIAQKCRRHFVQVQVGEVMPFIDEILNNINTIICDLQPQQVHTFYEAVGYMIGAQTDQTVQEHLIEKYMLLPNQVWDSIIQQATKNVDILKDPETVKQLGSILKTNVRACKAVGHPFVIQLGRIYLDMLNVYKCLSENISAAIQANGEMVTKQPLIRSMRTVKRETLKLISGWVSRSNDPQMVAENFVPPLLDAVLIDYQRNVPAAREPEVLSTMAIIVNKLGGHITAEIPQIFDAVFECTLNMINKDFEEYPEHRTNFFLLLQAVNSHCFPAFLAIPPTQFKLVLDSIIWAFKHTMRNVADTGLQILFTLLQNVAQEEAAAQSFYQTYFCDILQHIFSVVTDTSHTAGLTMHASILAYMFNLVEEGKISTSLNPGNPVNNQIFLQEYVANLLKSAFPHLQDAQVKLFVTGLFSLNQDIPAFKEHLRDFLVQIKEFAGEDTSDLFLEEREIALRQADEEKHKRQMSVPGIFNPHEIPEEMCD", "UniProt P52747": "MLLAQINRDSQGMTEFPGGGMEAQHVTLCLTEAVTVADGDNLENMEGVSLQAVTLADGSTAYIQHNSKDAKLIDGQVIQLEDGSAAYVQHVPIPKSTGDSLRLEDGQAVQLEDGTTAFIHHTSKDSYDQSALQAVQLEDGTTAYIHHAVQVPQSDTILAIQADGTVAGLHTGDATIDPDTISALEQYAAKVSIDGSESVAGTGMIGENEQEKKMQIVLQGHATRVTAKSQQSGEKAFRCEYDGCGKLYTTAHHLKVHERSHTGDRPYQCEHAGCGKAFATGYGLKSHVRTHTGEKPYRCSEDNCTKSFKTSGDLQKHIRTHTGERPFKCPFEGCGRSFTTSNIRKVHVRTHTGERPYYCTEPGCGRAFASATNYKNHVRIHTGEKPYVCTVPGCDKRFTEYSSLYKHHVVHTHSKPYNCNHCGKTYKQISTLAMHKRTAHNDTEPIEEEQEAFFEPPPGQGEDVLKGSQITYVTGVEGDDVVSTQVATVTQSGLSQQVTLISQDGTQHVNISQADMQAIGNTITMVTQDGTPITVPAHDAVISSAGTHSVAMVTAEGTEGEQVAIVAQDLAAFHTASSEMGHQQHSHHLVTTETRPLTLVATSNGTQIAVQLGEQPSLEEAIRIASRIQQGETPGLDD", "UniProt P67809, whole entry, looked up": "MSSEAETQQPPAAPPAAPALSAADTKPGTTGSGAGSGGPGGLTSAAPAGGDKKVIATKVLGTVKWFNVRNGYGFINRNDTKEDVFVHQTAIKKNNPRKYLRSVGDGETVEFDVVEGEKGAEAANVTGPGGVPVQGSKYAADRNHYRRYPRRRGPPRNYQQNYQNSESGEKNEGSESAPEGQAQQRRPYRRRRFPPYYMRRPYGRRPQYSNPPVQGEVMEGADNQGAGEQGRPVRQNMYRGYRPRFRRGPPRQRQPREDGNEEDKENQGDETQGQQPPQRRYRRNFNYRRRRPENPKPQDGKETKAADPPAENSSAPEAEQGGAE", "UniProt Q9NRH1": "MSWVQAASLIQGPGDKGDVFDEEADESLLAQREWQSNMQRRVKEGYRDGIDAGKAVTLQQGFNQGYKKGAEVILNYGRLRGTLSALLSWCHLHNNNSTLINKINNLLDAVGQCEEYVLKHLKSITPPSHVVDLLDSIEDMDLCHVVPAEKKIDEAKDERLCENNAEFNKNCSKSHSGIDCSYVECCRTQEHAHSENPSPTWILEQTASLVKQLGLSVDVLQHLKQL", "UniProt Q5VVQ6": "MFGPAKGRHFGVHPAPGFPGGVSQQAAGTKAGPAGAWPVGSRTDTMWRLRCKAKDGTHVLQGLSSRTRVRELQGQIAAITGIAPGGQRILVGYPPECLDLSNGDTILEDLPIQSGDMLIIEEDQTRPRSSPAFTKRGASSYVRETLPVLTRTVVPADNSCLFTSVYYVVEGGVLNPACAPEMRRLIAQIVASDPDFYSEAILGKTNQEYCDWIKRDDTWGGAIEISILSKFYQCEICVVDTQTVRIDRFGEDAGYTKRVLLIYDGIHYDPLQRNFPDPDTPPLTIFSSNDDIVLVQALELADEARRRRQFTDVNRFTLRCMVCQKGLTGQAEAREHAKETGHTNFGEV", "UniProt Q96EC8": "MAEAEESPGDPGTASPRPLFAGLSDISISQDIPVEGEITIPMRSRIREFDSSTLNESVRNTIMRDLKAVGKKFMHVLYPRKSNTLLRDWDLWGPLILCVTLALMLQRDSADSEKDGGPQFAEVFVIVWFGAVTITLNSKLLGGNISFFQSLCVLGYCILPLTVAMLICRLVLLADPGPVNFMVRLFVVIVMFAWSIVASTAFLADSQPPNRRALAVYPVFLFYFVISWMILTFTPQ"}, "source": "the supplement of paper PMC10849652", "note": "The list shows a part of the results."}
{"compound": "CC[C@H](C)N1C=C(C2=C(C=C(C=C21)C3=CN=C(C=C3)N4CCNCC4)C(=O)NCC5=C(C=C(NC5=O)C)C)C", "experiment": "log2 fold change, soluble protein after heating vs DMSO (PISA); higher = thermal stabilisation; K562 cells, 10 uM, 30 min; active = over 0.2 and 3.5 SD of the protein, either way, in both replicates (recomputed)", "in_short": "(§1)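 K562 cells at 2×10^6 cells/mL were given 10 μM compound for 30 min. Aliquots then went through 3 min of heating across 48°C-58°C, were pooled, and were extracted in PBS with 0.5% NP-40 at 4°C, and the supernatant after 21,000xg for 90 min was quantified by TMTpro 16plex LC-MS/MS with channel sums equalised. Thermal stability relative to control samples, from duplicates, is given as log2 fold change.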"}
{"target": "YJU2 (UniProt Q9BW85)", "log2 fold change": "inactive: -0.011"}
{"target": "ZFAND5 (UniProt O76080)", "log2 fold change": "inactive: -0.045"}
{"target": "ZNF24 (UniProt P17028)", "log2 fold change": "inactive: 0.034"}
{"target": "ZFPL1 (UniProt O95159)", "log2 fold change": "inactive: -0.013"}
{"target": "ZMYM3 (UniProt Q14202)", "log2 fold change": "inactive: 0.055"}
{"target": "XRCC5 (UniProt P13010)", "log2 fold change": "inactive: 0.207"}
{"target": "ZMAT2 (UniProt Q96NC0)", "log2 fold change": "inactive: -0.073"}
{"target": "YARS (UniProt P54577)", "log2 fold change": "inactive: 0.095"}
{"target": "YIPF4 (UniProt Q9BSR8)", "log2 fold change": "inactive: -0.016"}
{"target": "ZFP91 (UniProt Q96JP5)", "log2 fold change": "inactive: 0.04"}
{"target": "XRCC6 (UniProt P12956)", "log2 fold change": "inactive: 0.095"}
{"target": "YY1 (UniProt P25490)", "log2 fold change": "inactive: 0.061"}
{"target": "ZFYVE9 (UniProt O95405)", "log2 fold change": "inactive: -0.062"}
{"target": "XPNPEP3 (UniProt Q9NQH7)", "log2 fold change": "inactive: 0.069"}
{"target": "ZFAND2B (UniProt Q8WV99)", "log2 fold change": "inactive: 0.013"}
{"target": "ZDHHC17 (UniProt Q8IUH5)", "log2 fold change": "inactive: -0.022"}
{"target": "YWHAB (UniProt P31946)", "log2 fold change": "inactive: 0.009"}
{"target": "XPO1 (UniProt O14980)", "log2 fold change": "inactive: 0.085"}
{"target": "ZNF143 (UniProt P52747)", "log2 fold change": "inactive: 0.068"}
{"target": "YBX1 (UniProt P67809)", "log2 fold change": "inactive: -0.063"}
{"target": "ZER1 (UniProt Q7Z7L7)", "log2 fold change": "inactive: 0.064"}
{"target": "ZDHHC14 (UniProt Q8IZN3)", "log2 fold change": "inactive: -0.066"}
{"target": "YWHAQ (UniProt P27348)", "log2 fold change": "inactive: 0.072"}
{"target": "YAE1 (UniProt Q9NRH1)", "log2 fold change": "inactive: 0.02"}
{"target": "ZC3HC1 (UniProt Q86WB0)", "log2 fold change": "inactive: 0.164"}
{"target": "ZC3H18 (UniProt Q86VM9)", "log2 fold change": "inactive: 0.032"}
{"target": "YOD1 (UniProt Q5VVQ6)", "log2 fold change": "inactive: 0.081"}
{"target": "YIPF5 isoform 3 (UniProt Q969M3)", "log2 fold change": "inactive: -0.041"}
{"target": "YIPF6 (UniProt Q96EC8)", "log2 fold change": "inactive: -0.039"}
{"target": "XPO5 (UniProt Q9HAV4)", "log2 fold change": "inactive: 0.063"}
{"target": "YWHAZ (UniProt P63104)", "log2 fold change": "inactive: 0.008"}
{"target": "XPO6 (UniProt Q96QU8)", "log2 fold change": "inactive: -0.017"}
{"target": "YLPM1 (UniProt P49750)", "log2 fold change": "inactive: 0.067"}
{"target": "ZDHHC5 (UniProt Q9C0B5)", "log2 fold change": "inactive: -0.052"}
{"target": "XPNPEP1 isoform 3 (UniProt Q9NQW7)", "log2 fold change": "inactive: 0.018"}
{"target": "ZNF217 (UniProt O75362)", "log2 fold change": "inactive: 0.045"}
{"target": "ZFAND6 (UniProt Q6FIF0)", "log2 fold change": "inactive: -0.05"}
{"target": "ZC3H8 (UniProt Q8N5P1)", "log2 fold change": "inactive: -0.012"}
{"target": "YBX3 isoform 2 (UniProt P16989)", "log2 fold change": "inactive: -0.1"}
{"compound": "CC[C@H](C)[C@@H](C(=O)N[C@@H]([C@@H](C)O)C(=O)N[C@@H](CC(C)C)C(=O)[C@]1(CO1)C)NC(=O)[C@H]([C@@H](C)CC)N(C)C(=O)C [epoxomicin]", "experiment": "log2 fold change, soluble protein after heating vs DMSO (PISA); higher = thermal stabilisation; K562 cells, 10 uM, 30 min; active = over 0.2 and 3.5 SD of the protein, either way, in both replicates (recomputed)", "in_short": "as §1"}
{"target": "YJU2 (UniProt Q9BW85)", "log2 fold change": "inactive: 0.067"}
{"target": "ZFAND5 (UniProt O76080)", "log2 fold change": "active: 0.345"}
{"target": "ZNF24 (UniProt P17028)", "log2 fold change": "inactive: -0.076"}
{"target": "ZFPL1 (UniProt O95159)", "log2 fold change": "inactive: 0.134"}
{"target": "ZMYM3 (UniProt Q14202)", "log2 fold change": "inactive: -0.033"}
{"target": "XRCC5 (UniProt P13010)", "log2 fold change": "inactive: 0.069"}
{"target": "ZMAT2 (UniProt Q96NC0)", "log2 fold change": "inactive: 0.103"}
{"target": "YARS (UniProt P54577)", "log2 fold change": "inactive: -0.023"}
{"target": "YIPF4 (UniProt Q9BSR8)", "log2 fold change": "inactive: -0.005"}
{"target": "ZFP91 (UniProt Q96JP5)", "log2 fold change": "inactive: -0.045"}
{"target": "XRCC6 (UniProt P12956)", "log2 fold change": "inactive: 0.072"}
{"target": "YY1 (UniProt P25490)", "log2 fold change": "inactive: -0.003"}
{"target": "ZFYVE9 (UniProt O95405)", "log2 fold change": "inactive: -0.021"}
{"target": "XPNPEP3 (UniProt Q9NQH7)", "log2 fold change": "inactive: 0.075"}
{"target": "ZFAND2B (UniProt Q8WV99)", "log2 fold change": "inactive: -0.131"}
{"target": "ZDHHC17 (UniProt Q8IUH5)", "log2 fold change": "inactive: -0.044"}
{"target": "YWHAB (UniProt P31946)", "log2 fold change": "inactive: 0.018"}
{"target": "XPO1 (UniProt O14980)", "log2 fold change": "inactive: 0.023"}
{"target": "ZNF143 (UniProt P52747)", "log2 fold change": "inactive: 0.026"}
{"target": "YBX1 (UniProt P67809)", "log2 fold change": "inactive: -0.191"}
{"target": "ZER1 (UniProt Q7Z7L7)", "log2 fold change": "inactive: 0.048"}
{"target": "ZDHHC14 (UniProt Q8IZN3)", "log2 fold change": "inactive: 0.017"}
{"target": "YWHAQ (UniProt P27348)", "log2 fold change": "inactive: 0.111"}
{"target": "YAE1 (UniProt Q9NRH1)", "log2 fold change": "inactive: 0.118"}
{"target": "ZC3HC1 (UniProt Q86WB0)", "log2 fold change": "inactive: 0.1"}
{"target": "ZC3H18 (UniProt Q86VM9)", "log2 fold change": "inactive: -0.059"}
{"target": "YOD1 (UniProt Q5VVQ6)", "log2 fold change": "inactive: 0.051"}
{"target": "YIPF5 isoform 3 (UniProt Q969M3)", "log2 fold change": "inactive: 0.023"}
{"target": "YIPF6 (UniProt Q96EC8)", "log2 fold change": "inactive: 0.013"}
{"target": "XPO5 (UniProt Q9HAV4)", "log2 fold change": "inactive: 0.073"}
{"target": "YWHAZ (UniProt P63104)", "log2 fold change": "inactive: 0.041"}
{"target": "XPO6 (UniProt Q96QU8)", "log2 fold change": "inactive: -0.249"}
{"target": "YLPM1 (UniProt P49750)", "log2 fold change": "inactive: 0.059"}
{"target": "ZDHHC5 (UniProt Q9C0B5)", "log2 fold change": "inactive: -0.083"}
{"target": "XPNPEP1 isoform 3 (UniProt Q9NQW7)", "log2 fold change": "inactive: -0.024"}
{"target": "ZNF217 (UniProt O75362)", "log2 fold change": "inactive: 0.075"}
{"target": "ZFAND6 (UniProt Q6FIF0)", "log2 fold change": "inactive: 0.051"}
{"target": "ZC3H8 (UniProt Q8N5P1)", "log2 fold change": "inactive: -0.107"}
{"target": "YBX3 isoform 2 (UniProt P16989)", "log2 fold change": "inactive: -0.241"}
